This experiment is described as follows: qHTS Assay to Find Inhibitors of Chronic Active B-Cell Receptor Signaling. Conditions: ABC-DLBCL IkBa-CBG/CBR reporter, luminescence ratio (green luciferase fused to IkBa over red control in TMD8 lymphoma cells), 4 h. Summed up: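 Cell line TMD8 (human ABC DLBCL), stably expressing tet-inducible CBG68-IkBa fusion and CBR; IMDM/0.5% FBS; cpd up to 46 uM; dox induction, 4 h, 37C/5% CO2; dual luminescence; green/red ratio; MG132 control.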
(In general: qHTS replaces the single test concentration by a dilution series.)

Where [1] appears, read: measured here: CBR red luminescence, cell number.
[2] abbreviates: measured here: IkBa-CBG green luminescence.

The other results are listed elsewhere or left out. The main result of the screen is listed elsewhere. These columns were measured beside it and carry no call. Most of these compounds were active or inconclusive in the main read-out, so they are no random draw. Words in brackets tell the shape of the fitted curve; partial curves, single points and poor fits give uncertain potencies.

What is called AC50 is the concentration giving half of the maximal activity seen.

In the case of `CCCCOc1ccc(C(=O)Nc2ccncc2)cc1`, the AC50 under setting [1] was 0.58 µM [falling, full curve] and the concentration at half-maximal activity (AC50) under setting [2] is 0.92 µM [rising, full curve, poor fit].

Consider `COc1ccc(C(CNC(=O)c2cc(SC)ccc2Cl)N(C)C)cc1` (stereo unspecified), for which the half-maximal activity concentration (AC50) under setting [1] is 22.4 µM [falling, single point].

Take `O=C(Nc1nnc(-c2ccc3c(c2)CCCC3)o1)c1ccccc1Cl`: the AC50 under setting [1] is 8.2 µM [falling, partial curve, poor fit].

For the compound `O=C(Nc1ccon1)c1cccc(S(=O)(=O)N2CCCCC2)c1`, the half-maximal activity concentration (AC50) under setting [1] is 35.5 µM [falling, single point].

For `COc1cccc(NC(=O)COC(=O)c2ccccc2C(=O)N2CCN(c3ccccc3)CC2)c1`, the half-maximal activity concentration (AC50) under setting [1] is 28.2 µM [falling, partial curve, poor fit].

On to `CCN(CC)S(=O)(=O)c1cccc(-c2n[nH]c(=S)n2/N=C/c2ccc(OC(F)F)cc2)c1`, for which the AC50 under setting [1] is 11.6 µM [rising, partial curve, poor fit].

`O=C(CCNC(=O)Cn1ccc2ccccc2c1=O)NCCN1CCc2ccccc2C1`: the AC50 under setting [1] was 6.51 µM [rising, single point].

With `COC(=O)c1ccc(S(=O)(=O)N2CCCCC2)o1`, under setting [1], the AC50 was 29.1 µM [rising, single point].

For the compound `Cc1ccc(-c2csc(-c3cc(C)on3)n2)cc1`, under setting [1], the half-maximal activity concentration (AC50) is 17.8 µM [rising, partial curve, poor fit].

`Cc1ccc(CNS(=O)(=O)c2ccc(C(C)(C)C)cc2)n1C`: the AC50 under setting [1] was 6.51 µM [falling, single point].

Consider `COc1ccc(C2N(Cc3ccccc3)CCN2Cc2ccccc2)cc1[N+](=O)[O-]`, for which the concentration at half-maximal activity (AC50) under setting [1] was 14.1 µM [falling, partial curve, poor fit].

For `O=C(OCc1cccc([N+](=O)[O-])c1)c1ccncc1`, the AC50 under setting [1] was 35.5 µM [rising, single point].

As to `NNC(=O)c1ccc(COc2ccc(Br)cc2)o1`, the concentration at half-maximal activity (AC50) under setting [1] is 35.5 µM [falling, single point].

Take `N#Cc1c(N)nc(SCc2ccccc2)c(C#N)c1-c1ccco1`: the concentration at half-maximal activity (AC50) under setting [1] is 10 µM [falling, partial curve, poor fit].

As to `CN1CCN(C2=Nc3cc(Cl)ccc3Nc3ccccc32)CC1`, under setting [1], the AC50 was 35.5 µM [falling, single point].

Turning to `CC(C)N(C)Cc1cn(C)nc1-c1ccc(Oc2ccccc2)cc1`, under setting [1], the concentration at half-maximal activity (AC50) is 35.5 µM [rising, single point].

Turning to `O=C(CCl)N(Cc1cccc([N+](=O)[O-])c1)c1cccc(Cl)c1`, the concentration at half-maximal activity (AC50) under setting [1] was 20 µM [falling, partial curve, poor fit] and the AC50 under setting [2] is 5.01 µM [rising, partial curve, poor fit].

In the case of `CCOc1ccccc1-n1c(COc2ccc(C)cc2)nnc1SCC(N)=O`, the AC50 under setting [1] was 0.184 µM [falling, full curve, poor fit].

On to `Cc1cc(C)nc(NC(=O)c2ccccc2O)n1`, for which the concentration at half-maximal activity (AC50) under setting [1] is 5.62 µM [falling, full curve, poor fit].

As for `COc1ccc(-c2[nH]c(-c3ccc(F)cc3)nc2SCC(=O)NCc2ccco2)cc1OC`, the AC50 under setting [1] was 1.58 µM [rising, full curve, poor fit].

In the case of `O/N=C1\CCCCc2ccccc21`, under setting [1], the AC50 was 35.5 µM [falling, single point].

For the compound `COc1ccc(C)cc1NC(=O)c1cnc2n(c1=O)CCS2`, under setting [1], the AC50 is 4.61 µM [rising, single point].

On to `CCCCNC(=O)CC1N=C2c3ccccc3N=C(SCC(=O)Nc3cccc(C)c3)N2C1=O` (stereo unspecified), for which, under setting [1], the concentration at half-maximal activity (AC50) is 28.2 µM [rising, single point].

On to `CN(C)CCn1c2c(c(SCC(=O)Nc3nccs3)nc1=O)CCCC2`, for which the AC50 under setting [1] was 10.3 µM [falling, partial curve].

`CCc1ccc(/C=N/NC(=O)c2cc(-c3ccncc3)nc3ccccc23)s1`: the AC50 by setting is: under setting [1], 6.51 µM [rising, full curve]; under setting [2], 8.2 µM [falling, partial curve].

On to `CC(C)c1cc(C(=O)Nc2cccnc2)no1`, for which, under setting [1], the concentration at half-maximal activity (AC50) was 9.2 µM [falling, partial curve].

Take `CCOC(=O)c1c(/N=C/c2cccc([N+](=O)[O-])c2O)sc2c1CCC2`: the AC50 under setting [1] was 17.8 µM [falling, partial curve, poor fit].

Regarding `CCc1ccc(Nc2nnc(SCC(=O)N(C)C3CCS(=O)(=O)C3)s2)cc1` (stereo unspecified), the half-maximal activity concentration (AC50) under setting [1] is 8.91 µM [falling, partial curve, poor fit].

Take `CC(C)N(Cc1nnc(-c2ccc(Cl)cc2)o1)C(=O)c1cc2ccccc2o1`: under setting [1], the half-maximal activity concentration (AC50) was 2.06 µM [rising, partial curve, poor fit].

In the case of `O=C(N/N=C/C=C/c1ccccc1)c1ccncc1`, the AC50 under setting [1] was 13 µM [falling, partial curve].

In the case of `COCCCn1c(=O)/c(=C\c2ccc(OC(F)F)c(OC)c2)s/c1=C(/C#N)C(=O)NCCOC`, under setting [1], the AC50 was 0.1 µM [falling, full curve, poor fit].

Consider `CCc1c(C)nc(N)n2c(SCC(=O)Nc3ccccc3OC)nnc12`, for which the AC50 under setting [1] is 1.78 µM [falling, full curve, poor fit].

On to `NNC(=O)/C(=C/c1cccs1)NC(=O)c1ccccc1Cl`, for which, under setting [2], the AC50 is 17.8 µM [falling, single point].

On to `O=C(COC(=O)CN1C(=O)c2ccccc2C1=O)Nc1ccc(S(=O)(=O)N2CCCC2)cc1`, for which the AC50 under setting [1] was 6.51 µM [rising, full curve, poor fit].

Regarding `C#CCOC(=O)/C(=C/c1ccc(F)cc1)NC(C)=O`, under setting [1], the half-maximal activity concentration (AC50) is 2.06 µM [falling, partial curve, poor fit].

`O=C(N/N=C/c1cc(Br)ccc1O)c1ccccc1Cl`: the half-maximal activity concentration (AC50) under setting [1] was 2.59 µM [falling, partial curve, poor fit].

`CSC1=C(C#N)C(c2ccc3c(c2)OCO3)C2=C(CCCC2=O)N1` (stereo unspecified): the AC50 under setting [1] is 29.1 µM [rising, single point].

`CCn1c(SCC(=O)N=Nc2c(O)[nH]c3ccccc23)nc2ccccc21`: the AC50 under setting [1] is 0.651 µM [falling, partial curve, poor fit].

On to `CC1(C)C/C(=N\NC(=S)Nc2ccccc2F)c2cc(O)ccc2O1`, for which the half-maximal activity concentration (AC50) under setting [2] is 15.8 µM [falling, partial curve, poor fit].

As to `Cc1cc(C(=O)NC2CCCc3ccccc32)no1` (stereo unspecified), under setting [1], the AC50 was 17.8 µM [falling, single point].

With `CCC(=O)Nc1ccc(N2CCCCC2)c(C(=O)Nc2ccccc2C)c1`, the half-maximal activity concentration (AC50) under setting [1] was 3.26 µM [rising, single point].

As for `COC(=O)C1C(=O)C=C(Nc2ccc(F)cc2)CC1c1ccc(OC)cc1` (stereo unspecified), the AC50 under setting [1] was 23.1 µM [rising, single point].

For `CSCC[C@@H](C(=O)Nc1ccc2c(c1)OCCO2)N1Cc2ccccc2C1=O`, the AC50 under setting [1] was 3.66 µM [falling, full curve, poor fit].

As for `CC(C)(C)NC(=S)NNC(=O)c1ccccc1Cl`, the AC50 under setting [1] was 9.2 µM [falling, partial curve].

For `NC1=NC[C@@H](Cc2ccc(O)cc2)N1CCc1cc(C(F)(F)F)cc(C(F)(F)F)c1`, the concentration at half-maximal activity (AC50) under setting [1] was 35.5 µM [falling, single point].

`C#CCOCCOCCOCCNc1nc(N2CCN(C(=O)CCCCCCCCCCNC(=O)[C@H](CO)n3cc(CCCSC)nn3)CC2)nc(N2CCN(C(=O)CCCCCCCCCCNC(=O)[C@H](CCCCN)n3cc(C[C@@H](C)CC)nn3)CC2)n1`: the AC50 under setting [1] was 4.11 µM [falling, single point].

In the case of `COc1cc(NC(=O)c2cccs2)c(OC)cc1NC(=O)CCC(=O)Nc1cccc2ncccc12`, the half-maximal activity concentration (AC50) under setting [1] is 3.98 µM [falling, full curve, poor fit].

For `Cc1ccc(N(C)C(=O)n2cnc3ccccc32)cc1`, the AC50 by setting is: under setting [1], 15.8 µM [falling, single point]; under setting [2], 28.2 µM [rising, single point].

`CC(C)(C)c1csc(NC(=O)c2ccc(Br)o2)n1`: the AC50 under setting [1] was 11.2 µM [falling, partial curve, poor fit].

On to `COc1cccc(CNc2ncc(-c3ccc(Br)cc3)n2C)c1`, for which, under setting [1], the AC50 was 10 µM [falling, partial curve, poor fit].

Regarding `Cc1nn(C)c(=O)n1-c1ccc(OCc2ccccc2)cc1`, the AC50 under setting [1] was 23.1 µM [falling, partial curve, poor fit].

Regarding `O=C(NCCc1ccccc1)c1c(O)c2cccc3c2n(c1=O)CC3`, under setting [1], the concentration at half-maximal activity (AC50) was 18.4 µM [rising, single point].

For `Cc1ccc(Sc2ccc(NC(=O)CCN3C(=O)NC4(CCCC4)C3=O)cc2)c(C)c1`, under setting [1], the AC50 is 7.31 µM [falling, partial curve, poor fit].

In the case of `CN(C)C(=O)Nc1ccccc1`, the AC50 under setting [1] was 6.31 µM [rising, partial curve, poor fit].

As to `c1ccc(CCc2nc(-c3ccccc3)no2)cc1`, the AC50 under setting [1] is 14.1 µM [falling, single point].

`O=C(c1ccc(OC2CCN(C(=O)c3cccnc3)CC2)cc1)N1CCCCCC1`: under setting [1], the concentration at half-maximal activity (AC50) was 11.2 µM [rising, partial curve, poor fit].

As to `CCc1ccccc1N(CC(=O)Nc1cccnc1)S(=O)(=O)c1ccccc1`, the half-maximal activity concentration (AC50) under setting [1] was 11.2 µM [falling, partial curve].

Take `COc1ccc2oc(C(=O)OCC(=O)N3CCCC3=O)c(C)c2c1`: the concentration at half-maximal activity (AC50) under setting [1] is 8.2 µM [rising, partial curve, poor fit].

As for `C=CCn1c(O)c2ccc(C(=O)N=NC(=O)COc3ccccc3F)cc2c1O`, the AC50 under setting [1] was 2.91 µM [falling, partial curve, poor fit].

For `CC(=O)Nc1ccc(S(=O)(=O)N2CCN(S(=O)(=O)N3CCCCCC3)CC2)cc1`, the concentration at half-maximal activity (AC50) under setting [1] is 1.3 µM [falling, partial curve].

As for `CCOc1ncccc1C(=O)OCC(=O)NC1CCCCC1`, the half-maximal activity concentration (AC50) under setting [1] is 13 µM [rising, partial curve, poor fit].

In the case of `CCCCCCCCCCCCCCCC(=O)OC(CC(=O)O)C[N+](C)(C)C` (stereo unspecified), the AC50 under setting [1] is 18.4 µM [falling, partial curve, poor fit].

The values above are taken from PubChem BioAssay AID493014 (National Center for Advancing Translational Sciences (NCATS), 2011).
